The values below come from paper PMC10671598.

Protein sequences, listed by entry. Tags and fused reporters are not part of them.
UniProt P60484: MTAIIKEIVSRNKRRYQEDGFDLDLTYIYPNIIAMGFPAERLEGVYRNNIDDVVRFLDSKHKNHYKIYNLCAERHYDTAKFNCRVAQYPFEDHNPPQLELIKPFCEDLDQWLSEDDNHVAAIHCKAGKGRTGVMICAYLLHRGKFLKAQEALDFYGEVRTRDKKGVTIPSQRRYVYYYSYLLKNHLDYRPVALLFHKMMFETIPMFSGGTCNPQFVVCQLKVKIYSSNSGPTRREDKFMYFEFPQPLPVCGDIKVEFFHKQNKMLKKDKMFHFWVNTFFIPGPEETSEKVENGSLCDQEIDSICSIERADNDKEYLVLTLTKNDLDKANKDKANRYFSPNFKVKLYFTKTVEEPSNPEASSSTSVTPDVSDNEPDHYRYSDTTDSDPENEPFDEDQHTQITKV
UniProt Q14653: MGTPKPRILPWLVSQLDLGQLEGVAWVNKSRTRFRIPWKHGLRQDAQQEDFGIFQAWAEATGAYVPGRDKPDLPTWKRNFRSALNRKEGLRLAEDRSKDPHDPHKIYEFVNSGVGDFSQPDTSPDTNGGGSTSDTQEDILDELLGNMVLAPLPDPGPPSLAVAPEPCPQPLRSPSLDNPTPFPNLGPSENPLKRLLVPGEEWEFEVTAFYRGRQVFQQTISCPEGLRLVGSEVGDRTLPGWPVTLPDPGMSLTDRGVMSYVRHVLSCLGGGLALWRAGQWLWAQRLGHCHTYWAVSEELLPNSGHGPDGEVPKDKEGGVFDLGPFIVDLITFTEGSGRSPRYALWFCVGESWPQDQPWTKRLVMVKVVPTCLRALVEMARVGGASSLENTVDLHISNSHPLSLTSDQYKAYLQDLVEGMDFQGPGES

One assay has as its target PTEN-Flag (UniProt P60484). Put plainly: co-IP; HEK293T transfected with the indicated plasmids for 24 h; lysis buffer 20 mM Tris pH 7.5, 150 mM NaCl, 1% Triton X-100, 1 mM EDTA; Flag beads or the indicated antibody with protein A/G agarose, 4 °C overnight; immunoblot; for PTEN-IRF3 also with myc-RNF138 co-expressed or in RNF138-KO cells.
For another assay, the target named is T1, RNF138-Flag (human) (UniProt Q8WVD3).
T1 sequence: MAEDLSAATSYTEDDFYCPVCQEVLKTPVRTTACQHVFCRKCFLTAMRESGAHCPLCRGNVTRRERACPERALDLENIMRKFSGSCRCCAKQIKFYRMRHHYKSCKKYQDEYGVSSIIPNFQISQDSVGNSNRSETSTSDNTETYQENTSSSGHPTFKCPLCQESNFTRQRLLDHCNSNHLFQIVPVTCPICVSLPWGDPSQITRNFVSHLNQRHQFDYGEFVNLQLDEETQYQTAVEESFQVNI
Described as above.

The target in assay [1] is T2, RNF138 (endogenous, HEK293T) (human (endogenous in HEK293T)) (UniProt Q8WVD3).
T2 sequence: T1 sequence
Put plainly: co-IP; endogenous immunoprecipitation from HEK293T cells infected with SeV for the indicated times; same lysis and washing as for the transfected cells.

These are yes or no findings as the source states them, for the method shown. Binding seen in cells or lysates may run through a third protein. Some binding calls cover weakened binding; strength is not graded here. For some of these results: Sequences can lack the tags named with a protein.

With HA-IRF3 (from UniProt Q14653 1-427), the binding result with PTEN-Flag and in the assay with RNF138-Flag (human) was “binds” in each case.

As for “IRF3 (endogenous, HEK293T) (from UniProt Q14653 1-427)”, the binding entry (in assay [1]; with RNF138-Flag (human)) was “binds” throughout.
